Data reported in PMC10113190.

Chains of the proteins cited; added tags and fusions are not shown. Residues count along the entry.
UniProt Q8IFM5, residues 25-526: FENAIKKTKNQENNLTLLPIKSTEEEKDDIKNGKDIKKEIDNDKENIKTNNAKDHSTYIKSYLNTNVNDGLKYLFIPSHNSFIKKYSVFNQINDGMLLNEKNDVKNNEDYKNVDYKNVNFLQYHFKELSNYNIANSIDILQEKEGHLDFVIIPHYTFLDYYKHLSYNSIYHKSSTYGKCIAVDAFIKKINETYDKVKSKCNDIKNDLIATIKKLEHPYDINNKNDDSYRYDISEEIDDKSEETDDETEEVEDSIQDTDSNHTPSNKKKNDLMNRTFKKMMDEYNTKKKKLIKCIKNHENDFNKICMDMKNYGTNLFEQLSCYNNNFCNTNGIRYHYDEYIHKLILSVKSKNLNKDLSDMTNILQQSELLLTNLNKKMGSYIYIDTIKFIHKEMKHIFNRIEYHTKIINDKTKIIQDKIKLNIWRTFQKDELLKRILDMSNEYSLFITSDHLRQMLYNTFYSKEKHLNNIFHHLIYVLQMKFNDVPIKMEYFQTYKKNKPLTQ
UniProt Q8ILP3, residues 23-945: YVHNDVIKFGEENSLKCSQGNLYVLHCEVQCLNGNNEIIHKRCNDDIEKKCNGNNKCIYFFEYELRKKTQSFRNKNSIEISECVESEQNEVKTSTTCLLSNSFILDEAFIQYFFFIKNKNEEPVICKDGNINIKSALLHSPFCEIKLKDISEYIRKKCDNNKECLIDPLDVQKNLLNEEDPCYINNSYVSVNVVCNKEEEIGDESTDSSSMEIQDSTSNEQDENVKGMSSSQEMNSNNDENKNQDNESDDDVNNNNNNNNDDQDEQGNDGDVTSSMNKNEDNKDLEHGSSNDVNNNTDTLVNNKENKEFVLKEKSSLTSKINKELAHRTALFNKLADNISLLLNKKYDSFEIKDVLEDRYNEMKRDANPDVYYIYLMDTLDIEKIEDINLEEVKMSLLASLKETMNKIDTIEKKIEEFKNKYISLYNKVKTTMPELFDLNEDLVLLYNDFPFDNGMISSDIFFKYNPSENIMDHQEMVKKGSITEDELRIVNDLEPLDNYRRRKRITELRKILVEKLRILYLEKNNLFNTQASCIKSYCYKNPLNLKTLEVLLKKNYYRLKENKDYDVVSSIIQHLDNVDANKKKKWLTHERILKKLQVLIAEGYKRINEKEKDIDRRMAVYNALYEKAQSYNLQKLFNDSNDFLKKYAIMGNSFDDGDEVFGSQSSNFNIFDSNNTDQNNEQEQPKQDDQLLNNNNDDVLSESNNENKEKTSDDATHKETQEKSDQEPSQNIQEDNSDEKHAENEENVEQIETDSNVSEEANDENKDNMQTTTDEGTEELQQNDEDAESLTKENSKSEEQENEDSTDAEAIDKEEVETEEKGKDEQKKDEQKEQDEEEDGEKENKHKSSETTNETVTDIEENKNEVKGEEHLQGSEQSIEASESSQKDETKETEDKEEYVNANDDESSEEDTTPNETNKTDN
UniProt O97302, residues 20-1086: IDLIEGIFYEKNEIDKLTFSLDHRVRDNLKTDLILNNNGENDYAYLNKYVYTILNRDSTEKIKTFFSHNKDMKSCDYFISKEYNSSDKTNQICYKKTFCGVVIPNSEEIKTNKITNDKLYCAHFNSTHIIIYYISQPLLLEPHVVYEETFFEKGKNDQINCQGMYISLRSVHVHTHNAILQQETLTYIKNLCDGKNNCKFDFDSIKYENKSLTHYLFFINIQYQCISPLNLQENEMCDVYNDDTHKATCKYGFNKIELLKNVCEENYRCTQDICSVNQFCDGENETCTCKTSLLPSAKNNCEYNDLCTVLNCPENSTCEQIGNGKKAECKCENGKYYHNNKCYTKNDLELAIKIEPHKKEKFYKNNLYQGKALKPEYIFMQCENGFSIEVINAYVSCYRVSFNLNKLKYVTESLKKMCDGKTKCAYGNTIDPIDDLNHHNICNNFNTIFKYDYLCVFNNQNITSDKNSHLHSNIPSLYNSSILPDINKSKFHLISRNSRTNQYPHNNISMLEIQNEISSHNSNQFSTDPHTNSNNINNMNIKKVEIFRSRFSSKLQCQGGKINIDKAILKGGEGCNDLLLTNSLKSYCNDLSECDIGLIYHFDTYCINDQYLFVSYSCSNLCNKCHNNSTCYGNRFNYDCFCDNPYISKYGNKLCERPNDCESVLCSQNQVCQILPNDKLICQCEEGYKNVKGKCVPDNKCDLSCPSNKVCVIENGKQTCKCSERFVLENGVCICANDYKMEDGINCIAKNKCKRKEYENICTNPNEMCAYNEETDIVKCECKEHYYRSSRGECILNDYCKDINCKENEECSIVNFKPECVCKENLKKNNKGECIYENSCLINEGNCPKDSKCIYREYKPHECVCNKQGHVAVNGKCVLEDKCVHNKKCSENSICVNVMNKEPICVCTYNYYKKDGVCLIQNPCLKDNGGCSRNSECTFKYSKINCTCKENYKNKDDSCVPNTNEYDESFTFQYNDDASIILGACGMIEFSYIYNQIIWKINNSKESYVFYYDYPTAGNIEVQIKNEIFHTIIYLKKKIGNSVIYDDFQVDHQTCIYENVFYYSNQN

Biological target: PfRh5 with an N-terminally HA-tagged prodomain (Rh5PD-NHA), kept unprocessed with WM382 (P. falciparum) (UniProt Q8IFM5)
Test: affinity purification with mass spectrometry

Substance | binding
P113 (PF3D7_1420700), endogenous (from UniProt Q8ILP3 23-945) | binds
PfRipr (PF3D7_0323400), endogenous (from UniProt O97302 20-1086) | binds

No constants are given. Whether binding was seen depends on the method and setting. Binding seen in cells or lysates may run through a third protein. These calls come from enrichment with a bait or labelling near it, and not all partners need be listed.
